# Measured values published in the supplement of paper PMC11732987, “Enantioselective OTUD7B fragment discovery through chemoproteomics screening and high-throughput optimisation” (Communications Chemistry, 2025).
# Chains of the proteins cited; added tags and fusions are not shown. Lines headed by an entry give the natural chain unless they say otherwise; changes in a name come on top. Residues count along the entry.
# UniProt Q9Y620: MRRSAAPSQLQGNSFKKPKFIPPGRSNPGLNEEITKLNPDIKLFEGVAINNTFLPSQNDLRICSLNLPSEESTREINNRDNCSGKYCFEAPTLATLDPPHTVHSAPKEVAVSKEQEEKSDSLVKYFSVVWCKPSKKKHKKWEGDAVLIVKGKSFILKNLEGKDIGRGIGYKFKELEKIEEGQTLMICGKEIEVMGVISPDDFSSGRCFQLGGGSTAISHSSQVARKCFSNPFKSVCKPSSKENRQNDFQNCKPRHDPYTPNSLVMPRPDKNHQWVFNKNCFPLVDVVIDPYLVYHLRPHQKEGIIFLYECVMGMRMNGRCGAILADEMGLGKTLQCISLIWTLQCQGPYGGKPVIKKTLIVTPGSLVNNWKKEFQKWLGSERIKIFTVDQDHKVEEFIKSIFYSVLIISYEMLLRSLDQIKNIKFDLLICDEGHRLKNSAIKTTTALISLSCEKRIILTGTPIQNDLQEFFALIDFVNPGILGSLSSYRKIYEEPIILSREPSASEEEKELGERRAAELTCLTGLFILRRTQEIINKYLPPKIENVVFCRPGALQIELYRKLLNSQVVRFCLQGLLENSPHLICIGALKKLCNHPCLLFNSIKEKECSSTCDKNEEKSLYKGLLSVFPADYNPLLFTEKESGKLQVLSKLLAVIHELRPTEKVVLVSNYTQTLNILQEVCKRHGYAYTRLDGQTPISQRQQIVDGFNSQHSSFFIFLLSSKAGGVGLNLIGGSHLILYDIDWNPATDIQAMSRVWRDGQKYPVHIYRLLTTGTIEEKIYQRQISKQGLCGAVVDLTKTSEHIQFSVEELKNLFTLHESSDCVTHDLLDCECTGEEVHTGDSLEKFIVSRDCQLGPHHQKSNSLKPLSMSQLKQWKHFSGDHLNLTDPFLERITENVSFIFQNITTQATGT
# UniProt P61026: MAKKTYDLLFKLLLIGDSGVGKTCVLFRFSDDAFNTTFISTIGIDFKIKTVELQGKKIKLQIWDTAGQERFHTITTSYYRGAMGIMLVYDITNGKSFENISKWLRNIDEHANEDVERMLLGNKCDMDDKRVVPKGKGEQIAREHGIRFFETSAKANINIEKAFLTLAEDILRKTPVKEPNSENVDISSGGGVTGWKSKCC
# UniProt Q15032: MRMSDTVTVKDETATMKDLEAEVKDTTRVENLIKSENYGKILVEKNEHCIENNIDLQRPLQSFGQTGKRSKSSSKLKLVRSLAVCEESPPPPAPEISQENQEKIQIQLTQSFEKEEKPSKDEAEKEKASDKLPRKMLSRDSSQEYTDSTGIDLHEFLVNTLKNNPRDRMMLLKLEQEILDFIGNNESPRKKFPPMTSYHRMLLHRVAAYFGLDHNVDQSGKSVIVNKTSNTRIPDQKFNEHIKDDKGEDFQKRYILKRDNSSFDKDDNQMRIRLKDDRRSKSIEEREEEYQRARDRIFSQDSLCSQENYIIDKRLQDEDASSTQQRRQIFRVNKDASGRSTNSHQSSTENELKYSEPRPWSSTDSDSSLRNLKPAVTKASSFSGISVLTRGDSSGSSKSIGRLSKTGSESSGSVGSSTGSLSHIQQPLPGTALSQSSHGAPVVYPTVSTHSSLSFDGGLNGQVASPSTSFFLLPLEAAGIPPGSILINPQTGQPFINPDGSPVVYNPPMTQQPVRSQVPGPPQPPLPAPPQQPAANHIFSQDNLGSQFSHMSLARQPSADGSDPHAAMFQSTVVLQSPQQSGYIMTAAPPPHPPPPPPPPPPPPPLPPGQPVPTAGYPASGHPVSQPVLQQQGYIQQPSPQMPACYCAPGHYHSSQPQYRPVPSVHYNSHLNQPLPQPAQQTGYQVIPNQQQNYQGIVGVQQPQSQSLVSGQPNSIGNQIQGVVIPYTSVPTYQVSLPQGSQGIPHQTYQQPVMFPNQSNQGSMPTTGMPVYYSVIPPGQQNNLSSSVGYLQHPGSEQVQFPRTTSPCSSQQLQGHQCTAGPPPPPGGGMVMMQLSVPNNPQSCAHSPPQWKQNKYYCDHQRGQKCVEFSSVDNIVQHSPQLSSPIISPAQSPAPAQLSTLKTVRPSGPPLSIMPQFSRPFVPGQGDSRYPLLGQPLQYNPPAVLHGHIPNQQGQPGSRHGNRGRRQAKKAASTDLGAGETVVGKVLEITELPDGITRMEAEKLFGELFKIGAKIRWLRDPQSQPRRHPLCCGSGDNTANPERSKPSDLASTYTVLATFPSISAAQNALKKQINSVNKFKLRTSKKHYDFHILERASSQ
# UniProt Q96QF0: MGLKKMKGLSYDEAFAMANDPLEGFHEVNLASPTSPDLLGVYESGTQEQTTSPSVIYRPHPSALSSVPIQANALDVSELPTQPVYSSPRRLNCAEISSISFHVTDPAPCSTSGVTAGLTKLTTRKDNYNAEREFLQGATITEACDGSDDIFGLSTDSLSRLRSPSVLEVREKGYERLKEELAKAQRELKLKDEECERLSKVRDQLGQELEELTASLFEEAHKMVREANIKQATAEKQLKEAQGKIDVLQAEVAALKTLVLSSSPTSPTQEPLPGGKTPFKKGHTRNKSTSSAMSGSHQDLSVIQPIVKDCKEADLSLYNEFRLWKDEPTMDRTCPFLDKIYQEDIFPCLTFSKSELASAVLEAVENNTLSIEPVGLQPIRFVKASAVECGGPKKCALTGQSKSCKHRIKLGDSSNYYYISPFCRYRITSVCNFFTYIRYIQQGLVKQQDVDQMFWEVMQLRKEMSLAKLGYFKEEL
# UniProt P26045: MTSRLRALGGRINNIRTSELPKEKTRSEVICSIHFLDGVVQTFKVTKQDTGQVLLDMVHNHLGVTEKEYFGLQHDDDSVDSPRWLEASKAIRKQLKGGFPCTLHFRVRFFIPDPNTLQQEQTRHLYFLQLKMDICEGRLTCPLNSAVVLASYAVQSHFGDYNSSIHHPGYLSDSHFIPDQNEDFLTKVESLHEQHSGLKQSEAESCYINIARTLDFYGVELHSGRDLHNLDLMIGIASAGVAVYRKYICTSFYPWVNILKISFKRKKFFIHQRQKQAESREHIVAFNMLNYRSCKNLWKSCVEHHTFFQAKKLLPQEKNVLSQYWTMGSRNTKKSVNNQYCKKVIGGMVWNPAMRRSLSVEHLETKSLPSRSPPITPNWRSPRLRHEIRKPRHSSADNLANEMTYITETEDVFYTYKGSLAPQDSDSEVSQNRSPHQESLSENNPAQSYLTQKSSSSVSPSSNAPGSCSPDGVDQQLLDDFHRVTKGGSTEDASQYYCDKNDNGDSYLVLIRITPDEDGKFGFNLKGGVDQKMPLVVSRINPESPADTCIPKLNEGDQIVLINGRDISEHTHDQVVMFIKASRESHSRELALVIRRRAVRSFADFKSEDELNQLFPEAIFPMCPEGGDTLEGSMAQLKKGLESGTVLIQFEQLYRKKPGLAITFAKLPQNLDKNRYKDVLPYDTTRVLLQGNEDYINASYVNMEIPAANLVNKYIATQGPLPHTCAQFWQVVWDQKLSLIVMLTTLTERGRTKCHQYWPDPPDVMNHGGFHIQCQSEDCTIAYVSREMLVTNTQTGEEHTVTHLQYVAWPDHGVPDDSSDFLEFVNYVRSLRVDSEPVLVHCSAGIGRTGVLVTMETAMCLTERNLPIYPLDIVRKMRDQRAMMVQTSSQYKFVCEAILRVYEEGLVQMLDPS
# UniProt Q9Y617, 275-298: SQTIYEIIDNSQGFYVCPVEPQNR
# UniProt P62333: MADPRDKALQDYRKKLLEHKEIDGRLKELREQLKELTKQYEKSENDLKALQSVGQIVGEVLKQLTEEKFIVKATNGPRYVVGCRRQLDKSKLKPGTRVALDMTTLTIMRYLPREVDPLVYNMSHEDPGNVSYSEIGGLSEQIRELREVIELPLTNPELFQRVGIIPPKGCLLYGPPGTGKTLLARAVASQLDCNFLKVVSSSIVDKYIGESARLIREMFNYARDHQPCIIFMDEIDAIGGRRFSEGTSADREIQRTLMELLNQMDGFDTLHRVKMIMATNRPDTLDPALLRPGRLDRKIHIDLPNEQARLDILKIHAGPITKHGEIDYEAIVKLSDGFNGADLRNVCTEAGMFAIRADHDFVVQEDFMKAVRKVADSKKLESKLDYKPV
# UniProt Q5THK1: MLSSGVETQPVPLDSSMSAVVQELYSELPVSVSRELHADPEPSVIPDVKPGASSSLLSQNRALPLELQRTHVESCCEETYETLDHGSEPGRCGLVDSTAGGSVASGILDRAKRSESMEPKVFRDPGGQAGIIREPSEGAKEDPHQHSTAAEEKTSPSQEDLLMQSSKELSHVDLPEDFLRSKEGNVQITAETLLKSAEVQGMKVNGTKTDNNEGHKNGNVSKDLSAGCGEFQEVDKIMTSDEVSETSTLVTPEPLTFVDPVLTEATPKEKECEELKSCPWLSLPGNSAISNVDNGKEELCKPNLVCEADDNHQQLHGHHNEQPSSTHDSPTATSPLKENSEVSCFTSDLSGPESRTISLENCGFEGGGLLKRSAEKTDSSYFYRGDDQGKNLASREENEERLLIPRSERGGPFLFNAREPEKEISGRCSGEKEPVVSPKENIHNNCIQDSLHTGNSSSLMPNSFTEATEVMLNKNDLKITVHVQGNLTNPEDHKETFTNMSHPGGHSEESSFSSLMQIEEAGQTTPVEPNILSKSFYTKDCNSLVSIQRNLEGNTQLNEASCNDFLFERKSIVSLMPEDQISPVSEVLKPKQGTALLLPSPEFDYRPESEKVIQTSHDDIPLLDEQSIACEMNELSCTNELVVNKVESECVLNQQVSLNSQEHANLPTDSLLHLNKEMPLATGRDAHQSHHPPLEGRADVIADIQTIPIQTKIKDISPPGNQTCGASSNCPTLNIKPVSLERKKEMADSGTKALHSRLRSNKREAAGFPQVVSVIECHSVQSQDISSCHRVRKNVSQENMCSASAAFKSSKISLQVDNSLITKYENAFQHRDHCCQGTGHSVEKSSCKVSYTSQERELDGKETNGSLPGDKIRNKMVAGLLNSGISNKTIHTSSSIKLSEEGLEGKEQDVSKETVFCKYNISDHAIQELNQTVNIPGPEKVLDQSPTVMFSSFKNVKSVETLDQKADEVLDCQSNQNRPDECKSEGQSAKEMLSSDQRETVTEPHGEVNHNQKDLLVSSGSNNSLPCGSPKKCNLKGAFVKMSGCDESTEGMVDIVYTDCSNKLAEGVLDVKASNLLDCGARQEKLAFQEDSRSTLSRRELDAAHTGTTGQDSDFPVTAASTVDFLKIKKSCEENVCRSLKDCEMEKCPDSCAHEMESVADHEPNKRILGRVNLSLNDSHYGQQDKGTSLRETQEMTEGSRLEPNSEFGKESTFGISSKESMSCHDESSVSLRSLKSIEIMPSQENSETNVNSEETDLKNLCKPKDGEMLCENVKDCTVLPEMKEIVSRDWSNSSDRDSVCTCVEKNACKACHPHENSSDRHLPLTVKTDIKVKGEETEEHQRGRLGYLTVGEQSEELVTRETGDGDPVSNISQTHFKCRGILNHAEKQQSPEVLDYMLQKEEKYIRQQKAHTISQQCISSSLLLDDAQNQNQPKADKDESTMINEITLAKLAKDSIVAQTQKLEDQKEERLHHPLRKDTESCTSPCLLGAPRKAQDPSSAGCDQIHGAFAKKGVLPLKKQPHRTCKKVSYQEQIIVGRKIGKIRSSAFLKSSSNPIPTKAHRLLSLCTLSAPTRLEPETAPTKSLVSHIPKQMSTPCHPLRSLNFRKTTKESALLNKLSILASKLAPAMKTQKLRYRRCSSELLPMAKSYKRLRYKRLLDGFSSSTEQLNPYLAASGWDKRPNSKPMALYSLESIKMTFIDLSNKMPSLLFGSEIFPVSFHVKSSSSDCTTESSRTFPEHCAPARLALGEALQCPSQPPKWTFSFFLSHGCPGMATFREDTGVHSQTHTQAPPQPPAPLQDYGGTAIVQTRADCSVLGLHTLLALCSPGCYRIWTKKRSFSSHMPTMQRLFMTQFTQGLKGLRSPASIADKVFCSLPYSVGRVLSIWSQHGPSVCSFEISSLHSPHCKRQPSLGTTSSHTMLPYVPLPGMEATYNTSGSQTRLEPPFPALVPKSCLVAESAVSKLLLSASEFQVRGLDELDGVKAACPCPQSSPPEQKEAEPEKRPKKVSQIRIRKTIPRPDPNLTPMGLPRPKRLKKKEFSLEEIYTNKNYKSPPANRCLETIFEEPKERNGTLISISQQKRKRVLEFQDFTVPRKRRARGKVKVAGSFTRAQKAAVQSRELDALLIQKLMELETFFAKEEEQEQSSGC
# UniProt P35998: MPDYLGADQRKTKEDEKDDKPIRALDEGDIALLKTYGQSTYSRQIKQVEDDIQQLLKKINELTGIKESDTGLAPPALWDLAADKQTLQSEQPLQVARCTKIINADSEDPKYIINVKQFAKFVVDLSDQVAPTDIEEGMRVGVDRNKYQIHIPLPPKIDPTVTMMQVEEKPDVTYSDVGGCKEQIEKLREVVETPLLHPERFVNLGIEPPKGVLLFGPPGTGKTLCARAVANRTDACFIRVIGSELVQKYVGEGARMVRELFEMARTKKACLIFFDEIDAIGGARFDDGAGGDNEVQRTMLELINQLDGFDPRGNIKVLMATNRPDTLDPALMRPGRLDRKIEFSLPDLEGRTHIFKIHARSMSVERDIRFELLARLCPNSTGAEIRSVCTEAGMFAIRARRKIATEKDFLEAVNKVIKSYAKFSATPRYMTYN
# The other results are listed elsewhere or left out. The data scatter; read single values as rough.
# Assays:
# [1] = compound: ClCC(=O)N[C@@H]1CCCc2ccccc12; experiment: log2 mean competition ratio of IA-DTB cysteine labelling (DMSO/compound) (log2 ratio); higher = stronger cysteine engagement by compound; conditions: treatment time: 4 h, cell line lysate: HEK293T
# Protocol: (§1)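 IA-DTB competitive cysteine chemoproteomics in HEK293T RIPA lysate. Lysates were treated with compound 29 or 30 at 50 or 200 µM for 4 h, then IA-DTB (500 µM, 1 h), trypsin-digested, NeutrAvidin-enriched and analysed by diaPASEF. Competition ratio = intensity DMSO / intensity compound (n=4 treated, n=64 DMSO); binding: mean log2 CR ≥ 1 and p ≤ 0.05 plus QC filters. Target is the cysteine site.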
# [2] = compound: ClCC(=O)N[C@H]1CCCc2ccccc12; experiment: as above; conditions: treatment time: 4 h, cell line lysate: HEK293T
# Protocol: as §1
Target,log2 mean competition ratio ([1]; 50 µM),log2 mean competition ratio ([1]; 200 µM),log2 mean competition ratio ([2]; 50 µM),log2 mean competition ratio ([2]; 200 µM)
PWWP3A C372,0.231,-0.171,-0.018,-0.315
RAD54B C227 (UniProt Q9Y620),-0.0105,0.167,-0.26,0.108
PTPN12 C164 (UniProt Q05209),-0.0213,0.0523,-0.263,-0.0592
RAB10 C124 (UniProt P61026),-0.0737,-0.224,-0.0686,-0.0353
R3HDM1 C858 (UniProt Q15032+R3HDM1),-0.111,0.11,0.0326,0.255
RAB3IP C195 (UniProt Q96QF0),-0.192,0.626,-0.259,0.341
RAB18 C110,0.0121,0.206,0.197,-0.241
PSMD5 C133 (UniProt Q16401),-0.243,-0.0284,-0.22,-0.149
PRR3 C143 (UniProt P79522),0.00486,-0.083,-0.149,-0.08
PTDSS1 C347 (UniProt P48651),-0.511,0.161,-0.107,0.255
PTPN3 C549 (UniProt P26045),-0.258,-0.0211,-0.306,-0.0634
RAB11FIP1 C318 (UniProt Q6WKZ4),0.28,0.201,-0.0436,-0.0787
PTPN13 C2408 (UniProt Q12923),0.428,0.195,0.357,0.0616
RACK1 C153,0.0235,-0.383,0.12,-0.414
RAB22A C9 (UniProt Q9UL26),-0.055,0.00108,-0.364,0.0165
"QARS1 C358, A0A0U1RR66",0.379,-0.174,0.365,-0.205
PTPDC1 C22 (UniProt A2A3K4),-0.275,-0.313,0.226,0.496
PSAT1 C291 (UniProt Q9Y617),-0.249,-0.133,0.027,-0.316
PYCR1 C120,0.143,0.104,-0.152,0.0776
PTPRG C1160 (UniProt P23470),-0.109,-0.104,-0.038,0.0299
PTDSS1 C419 (UniProt P48651),0.00293,-0.093,0.521,-0.0393
PTPRU C1085,0.724,-0.0162,0.421,-0.166
PSMC6 C347 (UniProt P62333),0.0649,-0.165,0.149,-0.0291
PRR14L C1956 (UniProt Q5THK1),-0.145,-0.0487,0.0915,-0.0178
PSMC2 C389 (UniProt P35998),0.243,0.0622,0.215,0.0662

# Exported bar-delimited: part of the list above
Target | log2 mean competition ratio ([1]; 50 µM) | log2 mean competition ratio ([1]; 200 µM) | log2 mean competition ratio ([2]; 50 µM) | log2 mean competition ratio ([2]; 200 µM)
PTPN13 C2408 (UniProt Q12923) | 0.428 | 0.195 | 0.357 | 0.0616
RACK1 C153 | 0.0235 | -0.383 | 0.12 | -0.414
RAB22A C9 (UniProt Q9UL26) | -0.055 | 0.00108 | -0.364 | 0.0165
QARS1 C358, A0A0U1RR66 | 0.379 | -0.174 | 0.365 | -0.205
PTPDC1 C22 (UniProt A2A3K4) | -0.275 | -0.313 | 0.226 | 0.496
PSAT1 C291 (UniProt Q9Y617) | -0.249 | -0.133 | 0.027 | -0.316
